PubChem BioAssay AID1259424, University of Nebraska Medical Center | 2018

Assay: 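Find knockdowns that reproduce the expression shifts seen after KSR1 loss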 (primary screen)
Cells: human HCT116 colon cancer cells
Reagents: siRNA pool against human genes, 50 nM
Measured: 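Log2 levels of six mRNAs (branched-DNA multiplex), adjusted by two reference genes and the non-targeting median, then scored against the average KSR1 knockdown pattern as Pearson r and euclidean distance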
Scale: mean correlation with KSR1 profile and KSR1 correlation: higher = expression change more like KSR1 knockdown; mean distance from KSR1 profile: higher = expression change less like KSR1 knockdown
This is an unselected part of about 14,000 reagents tested. 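Higher correlation or smaller distance means closer resemblance to KSR1 loss; control wells, including KSR1 knockdowns, recur on many plates.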 Some reagents were tested in more than one well and are listed for each. Not all columns of the deposit are shown. The record does not give: the time to read-out.

gene | mean correlation with KSR1 profile | mean distance from KSR1 profile | KSR1 correlation, replicate 1 | KSR1 correlation, replicate 2
NMT1 | 0.0368 | 1.35 | 0.339 | -0.394
GPSM2 | 0.295 | 2.01 | 0.372 | 0.216
FBXO25 | -0.403 | 1.33 | -0.714 | -0.377
RHOA | -0.132 | 1.75 | -0.277 | -0.114
TMF1 | 0.399 | 1.94 | 0.604 | 0.574
FOXE1 | 0.305 | 2.68 | 0.221 | 0.0864
FOXE1 | -0.167 | 2.55 | -0.012 | -0.183
ASB4 | -0.0524 | 3.24 | 0.0258 | -0.234
SCAMP2 | 0.176 | 1.86 | 0.318 | 0.239
TBC1D9 | -0.0878 | 2.54 | 0.0344 | 0.0554
SON | -0.0469 | 4.68 | -0.189 | -0.492
EPHA6 | -0.331 | 4.11 | -0.322 | -0.0353
LGALS13 | 0.821 | 1.84 | 0.763 | 0.91
RPUSD4 | 0.208 | 3.07 | -0.00272 | 0.214
MOGAT2 | -0.0925 | 2.31 | -0.202 | -0.0902
VARS2 | 0.183 | 3.16 | 0.147 | 0.141
ZNF581 | -0.46 | 2.56 | -0.458 | -0.508

3 entries from above in another layout:
| gene | mean correlation with KSR1 profile | mean distance from KSR1 profile | KSR1 correlation, replicate 1 | KSR1 correlation, replicate 2 |
| --- | --- | --- | --- | --- |
| GPSM2 | 0.295 | 2.01 | 0.372 | 0.216 |
| FBXO25 | -0.403 | 1.33 | -0.714 | -0.377 |
| RHOA | -0.132 | 1.75 | -0.277 | -0.114 |

The listing continues:
gene | mean correlation with KSR1 profile | mean distance from KSR1 profile | KSR1 correlation, replicate 1 | KSR1 correlation, replicate 2
SLC46A2 | 0.756 | 1.39 | 0.662 | 0.716
RP9 | -0.251 | 1.86 | -0.0597 | -0.334
CACNA1E | -0.201 | 2.57 | -0.29 | -0.421
PLP2 | -0.119 | 2.32 | 0.21 | 0.00576
ADAT1 | 0.655 | 1.81 | 0.59 | 0.549
SERF2 | -0.628 | 3.15 | -0.554 | -0.606
SDHD | -0.0152 | 1.86 | -0.042 | -0.109
PTPN18 | -0.0983 | 2.31 | -0.162 | -0.101
MMGT1 | -0.0476 | 1.55 | 0.00754 | -0.293
PFKFB2 | 0.328 | 3.17 | 0.564 | 0.371
LAPTM4B | -0.106 | 3.37 | 0.0488 | -0.344
MTMR12 | -0.0324 | 4.24 | -0.348 | -0.00535
RUNX1T1 | 0.134 | 1.53 | -0.161 | 0.407
MSX2 | -0.303 | 3.47 | -0.0974 | -0.218
CADM3 | 0.861 | 1.4 | 0.738 | 0.839
PBRM1 | 0.192 | 2.21 | 0.167 | 0.119
FUT4 | -0.218 | 2.77 | -0.164 | -0.248
TRIM44 | -0.135 | 2.61 | -0.0677 | 0
PLAC8 | 0.0272 | 2.43 | -0.065 | 0.218
HOXD8 | -0.255 | 2.64 | -0.0537 | -0.215
RPS11 | -0.28 | 1.63 | -0.48 | 0.157
TEX10 | 0.0148 | 3.09 | -0.0173 | -0.0357
NAE1 | -0.245 | 2.61 | 0.025 | -0.598
P2RX4 | -0.035 | 0.947 | 0.392 | 0.544
FAM215A | -0.523 | 2.68 | -0.131 | -0.729
MAP7 | 0.00783 | 2.09 | 0.133 | -0.132
CD1B | -0.78 | 4.19 | -0.708 | -0.783
FNDC11 | 0.458 | 3.14 | 0.531 | 0.0594
HCRTR1 | 0.162 | 2.33 | -0.143 | 0.316
DDX4 | -0.61 | 2.02 | -0.505 | -0.626
CYP11B1 | -0.103 | 3.21 | -0.19 | -0.0683
PFKP | -0.368 | 3.06 | -0.106 | -0.556
BAK1 | 0.0666 | 2.65 | -0.00566 | -0.0269
